Measured data: PubChem BioAssay AID1671195 (Yale University, 2021)

- Test: 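Knockdowns that increase or decrease uptake of fluorescent LDL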 (primary screen)
- Cell system: human Huh7 hepatoma cells
- Knock-down reagent: siRNA pool against human genes, 18 nM
- Timing: about 2 to 2.5 days of knockdown, then 8 h LDL uptake
- Treatment: DiI-labelled LDL at 30 µg/ml for 8 h, in lipoprotein-deficient serum medium
- Read-out: 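Fluorescent LDL signal imaged in cells, scaled to the plate median, robust z-score for each replicate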
- Reading the numbers: robust z-score: higher = more LDL uptake after knockdown
- Rule for the call: 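a gene counts as active if at least two replicate z-scores exceed ±2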
Here is a random part of about 22,000 deposited reagents. Over the whole deposit, about 1,510 (6.9%) are marked active. 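Active includes knockdowns raising or lowering LDL uptake; positive z-scores mean more uptake, negative mean less.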

The first 2 entries, to show the layout:
MSH6 (GeneID 2956) | robust z-score, replicate 1 = -1.27; robust z-score, replicate 2 = -1.42; robust z-score, replicate 3 = -0.967; outcome = inactive
LINC01720 (GeneID 440704) | robust z-score, replicate 1 = -0.0402; robust z-score, replicate 2 = 0.163; robust z-score, replicate 3 = -0.123; outcome = inactive

The listing, from the start:
MSH6 (GeneID 2956) | robust z-score, replicate 1 = -1.27; robust z-score, replicate 2 = -1.42; robust z-score, replicate 3 = -0.967; outcome = inactive
LINC01720 (GeneID 440704) | robust z-score, replicate 1 = -0.0402; robust z-score, replicate 2 = 0.163; robust z-score, replicate 3 = -0.123; outcome = inactive
MAGEA13P (GeneID 139363) | robust z-score, replicate 1 = 0.588; robust z-score, replicate 2 = 0.367; robust z-score, replicate 3 = 2.71; outcome = inactive
BLTP1 (GeneID 84162) | robust z-score, replicate 1 = -1.04; robust z-score, replicate 2 = -0.64; robust z-score, replicate 3 = -0.826; outcome = inactive
ATP6V1D (GeneID 51382) | robust z-score, replicate 1 = 0.157; robust z-score, replicate 2 = -0.404; robust z-score, replicate 3 = -0.181; outcome = inactive
PRR34 (GeneID 55267) | robust z-score, replicate 1 = 0.33; robust z-score, replicate 2 = 1.41; robust z-score, replicate 3 = 0.971; outcome = inactive
BBIP1 (GeneID 92482) | robust z-score, replicate 1 = 0.0447; robust z-score, replicate 2 = -1.32; robust z-score, replicate 3 = -0.701; outcome = inactive
ZNF28 (GeneID 7576) | robust z-score, replicate 1 = -0.483; robust z-score, replicate 2 = -0.995; robust z-score, replicate 3 = -0.627; outcome = inactive
LOC440156 (retired record) (GeneID 440156) | robust z-score, replicate 1 = 0.371; robust z-score, replicate 2 = -0.185; robust z-score, replicate 3 = 0.162; outcome = inactive
EXPH5 (GeneID 23086) | robust z-score, replicate 1 = 1.12; robust z-score, replicate 2 = 1.13; robust z-score, replicate 3 = 2.76; outcome = inactive
SLC6A12 (GeneID 6539) | robust z-score, replicate 1 = -0.308; robust z-score, replicate 2 = -0.704; robust z-score, replicate 3 = -0.552; outcome = inactive
PABIR2 (GeneID 159090) | robust z-score, replicate 1 = -0.0592; robust z-score, replicate 2 = -0.211; robust z-score, replicate 3 = 0.163; outcome = inactive
RPL6P2 (GeneID 343495) | robust z-score, replicate 1 = 0.518; robust z-score, replicate 2 = 0.838; robust z-score, replicate 3 = 1.33; outcome = inactive
MPLKIP (GeneID 136647) | robust z-score, replicate 1 = 1.8; robust z-score, replicate 2 = 1.1; robust z-score, replicate 3 = 2.84; outcome = inactive
CUL7 (GeneID 9820) | robust z-score, replicate 1 = -0.766; robust z-score, replicate 2 = 0.0336; robust z-score, replicate 3 = 0.0694; outcome = inactive
LOC441850 (retired record) (GeneID 441850) | robust z-score, replicate 1 = -0.357; robust z-score, replicate 2 = 0.0453; robust z-score, replicate 3 = -0.232; outcome = inactive
PLCZ1 (GeneID 89869) | robust z-score, replicate 1 = -1.46; robust z-score, replicate 2 = -1.06; robust z-score, replicate 3 = -2.36; outcome = inactive
CCDC170 (GeneID 80129) | robust z-score, replicate 1 = 0.522; robust z-score, replicate 2 = 0.0687; robust z-score, replicate 3 = -0.0475; outcome = inactive
OR6B3 (GeneID 150681) | robust z-score, replicate 1 = -1.45; robust z-score, replicate 2 = -2.26; robust z-score, replicate 3 = -1.83; outcome = active
UEVLD (GeneID 55293) | robust z-score, replicate 1 = 0.882; robust z-score, replicate 2 = -0.251; robust z-score, replicate 3 = 1.04; outcome = inactive
LSM1 (GeneID 27257) | robust z-score, replicate 1 = 0.733; robust z-score, replicate 2 = 0.208; robust z-score, replicate 3 = 0.404; outcome = inactive
CYP3A43 (GeneID 64816) | robust z-score, replicate 1 = 1.2; robust z-score, replicate 2 = 1.28; robust z-score, replicate 3 = 2.28; outcome = inactive
ADAP2 (GeneID 55803) | robust z-score, replicate 1 = 0.145; robust z-score, replicate 2 = 0.0941; robust z-score, replicate 3 = -0.143; outcome = inactive
MYBPH (GeneID 4608) | robust z-score, replicate 1 = -0.561; robust z-score, replicate 2 = 0.362; robust z-score, replicate 3 = 0.122; outcome = inactive
